# Measured values reported in the supplement of paper PMC8728848.
# This is one part of the list.
# Tests used:
# Assay in all cases: glycan array binding signal (z-score within array); higher = stronger binding
# Settings in all cases: glycan notation: IUPAC condensed, linker removed
# [1] = molecular target: Fuc(a1-2)Gal(b1-4)GlcNAc(b1-3)Gal(b1-4)GlcNAc(b1-3)Gal(b1-4)GlcNAc
# Outline: (§1)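 Glycan array data were curated from 3228 arrays in the Consortium for Functional Glycomics database and kept only where the protein sequence was available. Glycan names were converted to IUPAC-condensed notation, and columns mapping to the same glycan were averaged. The binding signal is a within-array Z-score, averaged across arrays of the same protein sequence at different concentrations or buffers and across linkers. Negative Z-scores can be read as non-binding.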
# [2] = molecular target: Fuc(a1-2)Gal(b1-4)GlcNAc(b1-3)GalNAc
# Outline: as §1
# [3] = molecular target: Fuc(a1-2)Gal(b1-4)GlcNAc(b1-3)[Fuc(a1-2)Gal(b1-4)GlcNAc(b1-6)]GalNAc
# Outline: as §1
# [4] = molecular target: Fuc(a1-2)Gal(b1-4)GlcNAc(b1-3)[Fuc(a1-3)[Gal(b1-4)]GlcNAc(b1-6)]Gal(b1-4)Glc
# Outline: as §1
# [5] = molecular target: Fuc(a1-2)Gal(b1-4)GlcNAc(b1-6)GalNAc
# Outline: as §1
# [6] = molecular target: Fuc(a1-2)Gal(b1-4)GlcNAc6S
# Outline: as §1
# [7] = molecular target: Fuc(a1-2)Gal(b1-4)[Fuc(a1-3)]GlcNAc
# Outline: as §1
# [8] = molecular target: Fuc(a1-2)Gal(b1-4)[Fuc(a1-3)]GlcNAc(b1-2)Man(a1-3)[Fuc(a1-2)Gal(b1-4)[Fuc(a1-3)]GlcNAc(b1-2)Man(a1-6)]Man(b1-4)GlcNAc(b1-4)[Fuc(a1-6)]GlcNAc
# Outline: as §1
# [9] = molecular target: Fuc(a1-2)Gal(b1-4)[Fuc(a1-3)]GlcNAc(b1-2)[Fuc(a1-2)Gal(b1-4)[Fuc(a1-3)]GlcNAc(b1-4)]Man(a1-3)[Fuc(a1-2)Gal(b1-4)[Fuc(a1-3)]GlcNAc(b1-2)Man(a1-6)]Man(b1-4)GlcNAc(b1-4)GlcNAc
# Outline: as §1
# [10] = molecular target: Fuc(a1-2)Gal(b1-4)[Fuc(a1-3)]GlcNAc(b1-3)Gal(b1-4)[Fuc(a1-3)]GlcNAc
# Outline: as §1
# [11] = molecular target: Fuc(a1-2)Gal(b1-4)[Fuc(a1-3)]GlcNAc(b1-3)Gal(b1-4)[Fuc(a1-3)]GlcNAc(b1-3)Gal(b1-4)[Fuc(a1-3)]GlcNAc
# Outline: as §1
# [12] = molecular target: Fuc(a1-2)Gal(b1-4)[Fuc(a1-3)]GlcNAc(b1-3)GalNAc
# Outline: as §1
# [13] = molecular target: Fuc(a1-2)Gal(b1-4)[Fuc(a1-3)]GlcNAc(b1-3)[Neu5Ac(a2-6)Gal(b1-4)GlcNAc(b1-6)]Gal(b1-4)Glc
# Outline: as §1
# [14] = molecular target: Fuc(a1-2)Gal3S(b1-4)GlcNAc
# Outline: as §1
# [15] = molecular target: Fuc(a1-2)Gal6S(b1-3)GlcNAc
# Outline: as §1
# [16] = molecular target: Fuc(a1-2)Gal6S(b1-3)GlcNAc6S
# Outline: as §1
# [17] = molecular target: Fuc(a1-2)Gal6S(b1-4)Glc
# Outline: as §1
# [18] = molecular target: Fuc(a1-2)Gal6S(b1-4)Glc6S
# Outline: as §1
# [19] = molecular target: Fuc(a1-2)[Gal(a1-3)]Gal
# Outline: as §1
# [20] = molecular target: Fuc(a1-2)[Gal(a1-3)]Gal(b1-3)GalNAc
# Outline: as §1
# [21] = molecular target: Fuc(a1-2)[Gal(a1-3)]Gal(b1-3)GalNAc(b1-3)Gal(a1-4)Gal(b1-4)Glc
# Outline: as §1
# [22] = molecular target: Fuc(a1-2)[Gal(a1-3)]Gal(b1-3)GlcNAc
# Outline: as §1
# [23] = molecular target: Fuc(a1-2)[Gal(a1-3)]Gal(b1-3)GlcNAc(b1-2)Man(a1-3)[Fuc(a1-2)[Gal(a1-3)]Gal(b1-3)GlcNAc(b1-2)Man(a1-6)]Man(b1-4)GlcNAc(b1-4)GlcNAc
# Outline: as §1
# [24] = molecular target: Fuc(a1-2)[Gal(a1-3)]Gal(b1-3)GlcNAc(b1-2)Man(a1-3)[Fuc(a1-2)[Gal(a1-3)]Gal(b1-3)GlcNAc(b1-2)Man(a1-6)]Man(b1-4)GlcNAc(b1-4)[Fuc(a1-6)]GlcNAc
# Outline: as §1
# [25] = molecular target: Fuc(a1-2)[Gal(a1-3)]Gal(b1-3)GlcNAc(b1-3)GalNAc
# Outline: as §1
# [26] = molecular target: Fuc(a1-2)[Gal(a1-3)]Gal(b1-3)GlcNAc(b1-6)GalNAc
# Outline: as §1
# [27] = molecular target: Fuc(a1-2)[Gal(a1-3)]Gal(b1-4)Glc
# Outline: as §1
# [28] = molecular target: Fuc(a1-2)[Gal(a1-3)]Gal(b1-4)GlcNAc
# Outline: as §1
# [29] = molecular target: Fuc(a1-2)[Gal(a1-3)]Gal(b1-4)GlcNAc(b1-2)Man
# Outline: as §1
# [30] = molecular target: Fuc(a1-2)[Gal(a1-3)]Gal(b1-4)GlcNAc(b1-2)Man(a1-3)[Fuc(a1-2)[Gal(a1-3)]Gal(b1-4)GlcNAc(b1-2)Man(a1-6)]Man(b1-4)GlcNAc(b1-4)GlcNAc
# Outline: as §1
binder,measurement,setting,value
CM2 (Cordyceps militaris) (protein) MEIAEQNVGKSCAIVNLIPPKEGSNIWTAKQVTIARNLPPNRGTGRHQIDWSFGPVKVTGYVDTTNWEIGVTVSIMGIDLGTVYGNLRDGVVLNVDLFLAKGQVRFYLKNGNEVWVHLSVEIRFDGKFEGDYKIITV,glycan array binding signal (z-score),[1],0.53
same,glycan array binding signal (z-score),[2],0.038
same,glycan array binding signal (z-score),[3],-0.153
same,glycan array binding signal (z-score),[4],1.78
same,glycan array binding signal (z-score),[5],-0.483
same,glycan array binding signal (z-score),[6],0.223
same,glycan array binding signal (z-score),[7],0.733
same,glycan array binding signal (z-score),[8],0.44
same,glycan array binding signal (z-score),[9],0.693
same,glycan array binding signal (z-score),[10],0.593
same,glycan array binding signal (z-score),[11],-1.09
same,glycan array binding signal (z-score),[12],0.529
same,glycan array binding signal (z-score),[13],-1.48
same,glycan array binding signal (z-score),[14],1.07
same,glycan array binding signal (z-score),[15],-0.43
same,glycan array binding signal (z-score),[16],0.054
same,glycan array binding signal (z-score),[17],-1.36
same,glycan array binding signal (z-score),[18],-1.38
same,glycan array binding signal (z-score),[19],-0.913
same,glycan array binding signal (z-score),[20],1.24
same,glycan array binding signal (z-score),[21],-1.06
same,glycan array binding signal (z-score),[22],-0.609
same,glycan array binding signal (z-score),[23],0.361
same,glycan array binding signal (z-score),[24],-0.258
same,glycan array binding signal (z-score),[25],0.053
same,glycan array binding signal (z-score),[26],-0.605
same,glycan array binding signal (z-score),[27],0.763
same,glycan array binding signal (z-score),[28],-0.435
same,glycan array binding signal (z-score),[29],0.86
same,glycan array binding signal (z-score),[30],-0.098

# Another view of some results above.
binder | measurement | setting | value
CM2 (Cordyceps militaris) (protein) MEIAEQNVGKSCAIVNLIPPKEGSNIWTAKQVTIARNLPPNRGTGRHQIDWSFGPVKVTGYVDTTNWEIGVTVSIMGIDLGTVYGNLRDGVVLNVDLFLAKGQVRFYLKNGNEVWVHLSVEIRFDGKFEGDYKIITV | glycan array binding signal (z-score) | [5] | -0.483
same | glycan array binding signal (z-score) | [6] | 0.223
same | glycan array binding signal (z-score) | [7] | 0.733
same | glycan array binding signal (z-score) | [8] | 0.44
same | glycan array binding signal (z-score) | [9] | 0.693
same | glycan array binding signal (z-score) | [10] | 0.593
same | glycan array binding signal (z-score) | [11] | -1.09
same | glycan array binding signal (z-score) | [12] | 0.529
same | glycan array binding signal (z-score) | [13] | -1.48
